Results as given in PMC6255864.
Results are given in words; binding and its absence hold for the method and conditions named. Some entries that bind do so weakly or less than the wild type.

T1: annexin-V, membrane-bound trimeric form (A5) (human), P08758
T1 chain: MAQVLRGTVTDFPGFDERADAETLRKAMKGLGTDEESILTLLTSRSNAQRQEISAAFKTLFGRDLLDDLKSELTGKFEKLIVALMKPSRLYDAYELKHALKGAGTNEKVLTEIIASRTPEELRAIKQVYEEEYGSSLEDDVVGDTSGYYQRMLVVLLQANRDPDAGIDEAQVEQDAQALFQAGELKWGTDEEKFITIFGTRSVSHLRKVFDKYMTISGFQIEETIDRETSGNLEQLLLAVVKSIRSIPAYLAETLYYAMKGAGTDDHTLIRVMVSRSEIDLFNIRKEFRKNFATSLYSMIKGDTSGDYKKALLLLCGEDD


Legend:
[1] = molecular target: annexin-V, membrane-bound trimeric form (A5) (human) (UniProt P08758); assay: HS-AFM height spectroscopy (HS-AFM-HS); tip held at a fixed x,y position over a DOPC/DOPS (8:2) supported bilayer; unlabeled membrane-bound A5 diffusing under the tip; oligomer surface densities from dwell-time peaks fitted to Eq. (5); 2D dissociation constants in µm^-2; 10 mM HEPES pH 7.4, 150 mM NaCl, CaCl2 0-2 mM; 'monomer' = one A5 trimer; both purified
[2] = molecular target: T1, annexin-V, membrane-bound trimeric form …; assay: HS-AFM imaging; annexin-V from solution on a DOPC/DOPS (8:2) supported lipid bilayer on mica; Ca2+ released from NP-EGTA by UV; 10 mM HEPES pH 7.4, 150 mM NaCl; self-assembly into p6 2D-crystals; both purified; conditions: remark: other sources report otherwise

| binding [1] | binding [2] | Molecule |
| --- | --- | --- |
| binds weakly |  | annexin-V, membrane-bound trimeric form (A5) (from UniProt P08758 1-320) |
|  | binds | annexin-V, membrane-bound trimeric form (A5), P08758 1-320 (natural protein) MAQVLRGTVTDFPGFDERADAETLRKAMKGLGTDEESILTLLTSRSNAQRQEISAAFKTLFGRDLLDDLKSELTGKFEKLIVALMKPSRLYDAYELKHALKGAGTNEKVLTEIIASRTPEELRAIKQVYEEEYGSSLEDDVVGDTSGYYQRMLVVLLQANRDPDAGIDEAQVEQDAQALFQAGELKWGTDEEKFITIFGTRSVSHLRKVFDKYMTISGFQIEETIDRETSGNLEQLLLAVVKSIRSIPAYLAETLYYAMKGAGTDDHTLIRVMVSRSEIDLFNIRKEFRKNFATSLYSMIKGDTSGDYKKALLLLCGEDD |
